Assay results published in publication PMC3723849, “Evaluation of Phage Display Discovered Peptides as Ligands for Prostate-Specific Membrane Antigen (PSMA)” (PLoS ONE, 2013).
These are yes or no findings as the source states them, for the method shown.

By UniProt entry, the sequences of proteins in these tests, tags left out. Residues count along the entry.
UniProt Q04609, residues 44-750: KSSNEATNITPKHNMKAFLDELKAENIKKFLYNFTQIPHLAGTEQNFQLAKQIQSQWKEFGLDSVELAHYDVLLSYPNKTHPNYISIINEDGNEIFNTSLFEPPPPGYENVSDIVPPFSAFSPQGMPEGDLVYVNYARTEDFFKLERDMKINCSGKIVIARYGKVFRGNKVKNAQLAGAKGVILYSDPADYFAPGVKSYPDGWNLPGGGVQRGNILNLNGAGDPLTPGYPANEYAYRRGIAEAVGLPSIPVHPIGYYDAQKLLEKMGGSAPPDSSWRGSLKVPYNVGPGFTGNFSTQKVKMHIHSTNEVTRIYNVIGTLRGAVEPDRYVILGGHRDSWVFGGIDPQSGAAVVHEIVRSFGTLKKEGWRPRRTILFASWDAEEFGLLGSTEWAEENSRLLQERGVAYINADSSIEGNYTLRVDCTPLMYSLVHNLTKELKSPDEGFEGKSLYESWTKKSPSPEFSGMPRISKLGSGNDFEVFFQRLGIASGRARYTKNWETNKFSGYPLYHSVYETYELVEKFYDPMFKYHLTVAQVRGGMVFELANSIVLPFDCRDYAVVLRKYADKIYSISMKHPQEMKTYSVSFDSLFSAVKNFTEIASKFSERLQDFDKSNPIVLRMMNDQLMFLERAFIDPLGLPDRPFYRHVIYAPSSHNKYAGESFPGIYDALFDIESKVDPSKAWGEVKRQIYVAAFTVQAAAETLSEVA

Molecular target: His-tagged PSMA (PSMA-His6), soluble ectodomain of prostate-specific membrane antigen (human) (UniProt Q04609)
Assay: AlphaScreen or HTRF; competition: 563-biotin on streptavidin donor beads, PSMA-His6 on nickel chelate acceptor beads, unlabeled peptide at various concentrations; ambient temperature; 25 mM HEPES, 100 mM NaCl, pH 7.4; IC50 used to approximate KD; both purified

- binding: no binding (tested: 4.83 µM)
B1: Peptide 565 (peptide)
peptide: ARMFLLFLMRCIGCY
modifications: Cys(Acm)
